{
  "source": "patent US20130035329A1",
  "about": "“THERAPEUTICALLY ACTIVE COMPOSITIONS AND THEIR METHODS OF USE” (priority 2009, published 2013)",
  "origin": "cited, not measured here",
  "key": {"[1]": {"test_system": "glioblastoma multiforme", "conditions": "cited from earlier work"}, "[2]": {"test_system": "recurrent glioma", "conditions": "recurrent glioma patients treated with temozolomide; cited from earlier work"}, "[3]": {"conditions": "patients with MGMT promoter methylation"}, "[4]": {"conditions": "patients without MGMT promoter methylation"}},
  "note": "Like-named read-outs stand apart in the source and are kept apart here. At least one structure is not confirmed: it was looked up by name or label, or the drawing left a doubt.",
  "data": [
    {"smiles": "Cn1nnc2c(C(N)=O)ncn2c1=O", "note": "[temozolomide]", "values": [
      {"measurement": "median progression-free survival", "setting": "[1]; adjuvant and concomitant temozolomide with radiation (radiation alone: 5 mo)", "value": 6.9, "unit": "mo"},
      {"measurement": "likelihood of being alive in 2 years", "setting": "[1]; adjuvant and concomitant temozolomide with radiation (radiation alone: 10%)", "value": 26, "unit": "%"},
      {"measurement": "overall survival", "setting": "[1]; adjuvant and concomitant temozolomide with radiation (radiation alone: 12.1 mo)", "value": 14.6, "unit": "mo"},
      {"measurement": "2-year survival rate", "setting": "[1]; [3]", "value": 46, "unit": "%"},
      {"measurement": "median survival", "setting": "[1]; [3]", "value": 21.7, "unit": "months"},
      {"measurement": "2-year survival rate", "setting": "[1]; [4]", "value": 13.8, "unit": "%"},
      {"measurement": "median survival", "setting": "[1]; [4]", "value": 12.7, "unit": "months"},
      {"measurement": "6-month survival", "setting": "[2]", "value": 21, "unit": "%"}
    ]}
  ]
}
